# Measured values: ChEMBL document CHEMBL5252554, “Stereodivergent Hydroxylation of Berkeleylactones by Penicillium turbatum” (J Nat Prod, 2023)
# System: Candida albicans
# Test: Antifungal activity against Candida albicans ATCC 10231 assessed as fungal growth inhibition measured after 48 hrs by bromocresol green staining based method
# Assay type: functional
smiles,measurement,value
C[C@@H]1[C@H](O)[C@@H](C)/C=C/C=C/C=C/C=C/C=C/C=C/C=C/[C@H](O[C@@H]2O[C@H](C)[C@@H](O)[C@H](N)[C@@H]2O)C[C@@H]2O[C@](O)(C[C@@H](O)C[C@@H](O)[C@H](O)CC[C@@H](O)C[C@@H](O)CC(=O)O[C@H]1C)C[C@H](O)[C@H]2C(=O)O [AMPHOTERICIN B],MIC,0.1 µM
